Measured values reported in patent US20250034266A1.
No constants are given. Whether binding was seen depends on the method and setting. Some binding calls cover weakened binding; strength is not graded here.

Amino acid sequences for entries named in this document (tags omitted). A change or cut given only in a name is not applied to a line headed by its entry. Chains listed by the source or under a name are the forms on record and can include a tag or linker.
UniProt P51685: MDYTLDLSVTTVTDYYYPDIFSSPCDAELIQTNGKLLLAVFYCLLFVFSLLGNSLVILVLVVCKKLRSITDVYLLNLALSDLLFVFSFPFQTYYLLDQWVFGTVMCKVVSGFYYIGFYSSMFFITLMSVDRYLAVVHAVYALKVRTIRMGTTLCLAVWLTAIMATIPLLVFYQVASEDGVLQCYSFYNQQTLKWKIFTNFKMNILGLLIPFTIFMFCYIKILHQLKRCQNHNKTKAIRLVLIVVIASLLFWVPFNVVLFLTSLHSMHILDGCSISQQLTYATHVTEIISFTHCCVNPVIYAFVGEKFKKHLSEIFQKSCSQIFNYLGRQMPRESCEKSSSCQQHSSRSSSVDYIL
cynomolgus CCR8 (G7NYJ2, form named): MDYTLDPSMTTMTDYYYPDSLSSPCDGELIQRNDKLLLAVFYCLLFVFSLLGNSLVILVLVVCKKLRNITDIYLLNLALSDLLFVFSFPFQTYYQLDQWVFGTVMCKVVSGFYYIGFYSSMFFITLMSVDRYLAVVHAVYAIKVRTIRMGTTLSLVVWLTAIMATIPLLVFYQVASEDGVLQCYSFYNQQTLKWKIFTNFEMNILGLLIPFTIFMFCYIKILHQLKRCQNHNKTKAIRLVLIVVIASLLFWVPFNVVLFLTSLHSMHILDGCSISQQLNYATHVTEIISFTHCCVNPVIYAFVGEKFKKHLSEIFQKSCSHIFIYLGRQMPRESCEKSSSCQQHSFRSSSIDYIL

Tests used:
human CCR8 (human) [1] = biological target: human CCR8 (human) (UniProt P51685); test: FACS on HEK293-human CCR8 cells
human CCR8 (human) [2] = biological target: human CCR8 (human) (UniProt P51685); test: FACS, purified murine antibody on CHO-K1- and HEK293-human CCR8 cells
human CCR8 (human) [3] = biological target: human CCR8 (human) (UniProt P51685); test: FACS, hybridoma supernatant on human CCR8 cells
[4] = biological target: cynomolgus CCR8 (cynomolgus) (UniProt G7NYJ2); test: FACS, hybridoma supernatant on cynomolgus CCR8 cells
[5] = biological target: cynomolgus CCR8 (cynomolgus) (UniProt G7NYJ2); test: FACS, purified murine antibody on HEK293-cynomolgus CCR8 cells

| binding (human CCR8 (human) [1]) | binding (human CCR8 (human) [2]) | binding (human CCR8 (human) [3]) | binding [4] | binding [5] | Binder |
| --- | --- | --- | --- | --- | --- |
| binds |  |  |  |  | CM348 (antibody, V domains shown) VH: QVQLVETGGGLVRPGNSLKLSCVTSGFSFSNYRMHWLRQPPGKRLEWIAVITVKSDNYGANYAESVKGRFTISRDDSKSSVYLQMNRLREEDTATYYCSSLGRVAYWGQGTLVTVSA VL: DIVMTQSQKFMFTSVGDRVSVTCKASQNVDTNVVWYQQKPGQSPKALIYSASSRYSGVPDRFTGSGSGTDFTLTISNVQSEDLAEYFCQQHNSFPLTFGAGTKLELI |
|  | binds | binds | binds | binds | 234G9C12 (antibody, V domains shown) VH: DVQLQESGPGLVKPSQSLSLTCSVTGYSITSGYYWNWIRQFPGNKLEWMGYTSYDGSNNYNPSFKNRISITRDISKNQFFLKLNSVTTEDTATYYCARQIGLRRGAMDHWGQGTSVTVSS VL: DIQMTQSSSYLSVSLGGRVTITCKASDHINNWLAWYQQKPGNAPRLLISGSTSLRAGVASRFSGSGSGKDYTLTITSLQTEDVATYYCQQYWGIPFTFGGGTKLEIK |
|  | binds | binds | binds | binds | 153D4G2 (antibody, V domains shown) VH: EVQLVESGGGLVQPKGSLKLSCAASGFTFNTYAMNWVRQAPGKGLEWVARIRSKSNFYATYYADSVKDRFTISRDDSQDMLYLQMNILKTEDTAIYYCVRGRDYGSSYAMDYWGQGTSVTVSS VL: DIVMTQAAPSVPVTPGESVSISCRSSKSLLHSNGNTYLYWFLQRPGQSPQLLIYRMSNLASGVPDRFSGSGSGTAFTLRISRVEAEDVGVYYCMQHLEYPLTFGAGTKLELK |
